Source: paper PMC10954555
No constants are given. Whether binding was seen depends on the method and setting. In cells and extracts the contact can be indirect. Some entries that bind do so weakly or less than the wild type.

The chains behind the UniProt entries cited, without tags or fusion partners.
UniProt Q9H9F9: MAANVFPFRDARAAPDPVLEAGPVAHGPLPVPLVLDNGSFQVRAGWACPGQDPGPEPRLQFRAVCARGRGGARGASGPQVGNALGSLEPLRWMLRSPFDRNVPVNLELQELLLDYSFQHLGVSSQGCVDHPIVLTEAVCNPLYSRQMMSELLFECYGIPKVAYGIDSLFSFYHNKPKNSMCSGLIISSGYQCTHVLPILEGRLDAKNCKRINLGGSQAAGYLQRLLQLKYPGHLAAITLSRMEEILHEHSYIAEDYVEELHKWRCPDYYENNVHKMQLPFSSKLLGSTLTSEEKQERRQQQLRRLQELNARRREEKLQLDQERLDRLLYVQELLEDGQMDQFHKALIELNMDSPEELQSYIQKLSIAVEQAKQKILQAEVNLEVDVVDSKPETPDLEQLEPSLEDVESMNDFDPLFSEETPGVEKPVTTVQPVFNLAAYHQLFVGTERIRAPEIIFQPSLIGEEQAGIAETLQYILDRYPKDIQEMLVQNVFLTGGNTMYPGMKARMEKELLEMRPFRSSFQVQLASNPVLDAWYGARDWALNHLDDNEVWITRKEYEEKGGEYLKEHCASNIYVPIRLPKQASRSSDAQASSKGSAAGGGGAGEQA
UniProt Q9C086: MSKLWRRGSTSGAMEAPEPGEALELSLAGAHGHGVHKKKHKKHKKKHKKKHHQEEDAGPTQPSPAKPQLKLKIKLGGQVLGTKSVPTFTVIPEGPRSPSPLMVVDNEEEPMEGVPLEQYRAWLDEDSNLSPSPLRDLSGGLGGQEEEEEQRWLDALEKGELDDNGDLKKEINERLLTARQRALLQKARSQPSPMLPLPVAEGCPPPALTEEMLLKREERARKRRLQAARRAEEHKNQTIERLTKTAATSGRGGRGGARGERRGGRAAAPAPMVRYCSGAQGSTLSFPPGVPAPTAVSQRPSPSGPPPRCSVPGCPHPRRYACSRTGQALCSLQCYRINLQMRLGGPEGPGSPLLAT

B1: transforming growth factor beta regulator 1 (TBRG1) (protein, UniProt Q3YBR2 1-411)
chain: MSLLDGLASSPRAPLQSSKARMKKLPKKSQNEKYRLKYLRLRKAAKATVFENAAICDEIARLEEKFLKAKEERRYLLKKLLQLQALTEGEVQAAAPSHSSSLPLTYGVASSVGTIQGAGPISGPSTGAEEPFGKKTKKEKKEKGKENNKLEVLKKTCKKKKMAGGARKLVQPIALDPSGRPVFPIGLGGLTVYSLGEIITDRPGFHDESAIYPVGYCSTRIYASMKCPDQKCLYTCQIKDGGVQPQFEIVPEDDPQNAIVSSSADACHAELLRTISTTMGKLMPNLLPAGADFFGFSHPAIHNLIQSCPGARKCINYQWVKFDVCKPGDGQLPEGLPENDAAMSFEAFQRQIFDEDQNDPLLPGSLDLPELQPAAFVSSYQPMYLTHEPLVDTHLQHLKSPSQGSPIQSSD

Columns and labels:
[1] = biological target: C-terminal LAP-tagged INO80 subunit ACTR5 (UniProt Q9H9F9); assay: co-IP; native ChIP: GFP-Trap agarose on MNase-digested chromatin of HeLa Kyoto cells expressing ACTR5-LAP (WT HeLa as control); release with 3C protease; immunoblotting
[2] = biological target: INO80B-V5 (endogenously V5-tagged INO80B) (human (endogenous in MCF-7)) (UniProt Q9C086); assay: co-IP; anti-V5 immunoprecipitation from nuclear extracts of MCF-7 INO80B-V5 knock-in clones (V5-negative clones as control); 160 mM NaCl, overnight at 4 °C; protein A/G Dynabeads; immunoblotting

| Molecule | binding [1] | binding [2] |
| --- | --- | --- |
| INO80B (INO80 complex subunit), endogenous (from UniProt Q9C086 1-356) | binds | – |
| B1 | – | binds |
